# Measurements as given in PubChem BioAssay (NCATS).
# Inconclusive results, whose numbers are uncertain, are shown with a selection of clear calls. Potencies of inconclusive entries are doubtful fits and often do not repeat. Calls of active or inactive are those of the source. Calls follow the shape of the dose curve; as a rule, active = well fitted cell-killing curve with a large enough effect; inconclusive = small, poorly fitted or top-dose-only effect, or effect the other way; inactive = no such curve, though single readings can be large or run the other way.
# Assay: Quantitative High-Throughput drug screen in 47 multiple myeloma cell lines against the NCATS MIPE library collection: MM1S_ATCC cell viability assay (AID 1918980); also: nearly all actives have a fitted effect of over 45% in size
# Conditions: MM1S myeloma viability, CellTiter-Glo ATP luminescence, 48 h; series mostly up to 45.8 µM
# Outline: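 Myeloma cells (500/well) treated with MIPE 4.0 compounds for 48 h at 37 °C, 5% CO2. Viability read as ATP via CellTiter-Glo luminescence after 5 min at RT; DMSO-only wells = 100%, media-only = 0% viability.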
# Potency is read from the fitted curve at half-maximal effect.
row,SMILES,Potency
1,CC1=C(C)C(=O)C(C(CCCCCC(=O)O)c2ccccc2)=C(C)C1=O (stereo not given),"inconclusive: 0.0235 µM [rising, full curve]"
2,CO[C@H]1C(=O)[C@]2(C)[C@@H](OC)C[C@H]3OC[C@@]3(OC(C)=O)[C@H]2[C@H](OC(=O)c2ccccc2)[C@]2(O)C[C@H](OC(=O)[C@H](O)[C@@H](NC(=O)OC(C)(C)C)c3ccccc3)C(C)=C1C2(C)C,"inconclusive: 0.0012 µM [rising, full curve]"
3,CCc1ccc(C=C2SC(=S)NC2=O)cc1,"inconclusive: 0.0148 µM [rising, full curve, poor fit]"
4,O=c1c(-c2ccc(O)cc2)coc2cc(O)ccc12,active: 13.2 µM
5,Cc1cccc(C#Cc2ccccc2)n1,"inconclusive: 26.4 µM [cytotoxic, single point]"
6,Nc1nc(F)nc2c1ncn2[C@@H]1O[C@H](COP(=O)(O)O)[C@@H](O)[C@H]1O,"inconclusive: 20.9 µM [cytotoxic, partial curve]"
7,O=C(NNC(=O)c1ccc(CNS(=O)(=O)c2ccc(F)c(Cl)c2)cc1)c1ccccc1,"inconclusive: 0.0264 µM [rising, full curve, poor fit]"
8,NC1CCC(Nc2nc(Nc3ccc(C(=O)N4CCCCC4)cc3)c3ncn(-c4cccc(F)c4)c3n2)CC1 (stereo not given),inactive
9,CC[C@@H](C)[C@H](NC(=O)[C@H](CC1CCCCC1)NC(=O)c1ccno1)C(=O)N1CCC2(CCc3ccccc32)CC1,"inconclusive: 3.72 µM [cytotoxic, full curve, poor fit]"
10,CC(C)(C)COc1ccc(-n2cc(C(=O)O)cn2)cc1C#N,"inconclusive: 26.4 µM [cytotoxic, partial curve, poor fit]"
11,O=c1c2ccccc2nc2n1CCc1c-2[nH]c2ccccc12,"inconclusive: 0.0074 µM [rising, full curve, poor fit]"
12,COc1ccc(CC2=NN3C([C@@H](CCc4ccccc4)[C@@H](C)O)=NC(C)C3C(=O)N2)cc1OC (stereo not given in full),inactive
13,CCOc1ccc(Cc2cc([C@@H]3O[C@H](CO)[C@@H](O)[C@H](O)[C@@H]3O)ccc2Cl)cc1,"inconclusive: 0.0019 µM [rising, full curve, poor fit]"
14,O=C(O)c1cc(=O)c2c(OCC(O)COc3cccc4oc(C(=O)O)cc(=O)c34)cccc2o1,"inconclusive: 0.0053 µM [rising, full curve]"
15,CO[C@H]1O[C@@H]2O[C@@]3(C)CC[C@@H]4[C@@H](C)CC[C@@H]([C@H]1C)[C@@]24OO3,inactive
16,Cc1[nH]c(=O)c(C#N)cc1-c1ccc2nccn2c1,"inconclusive: 0.003 µM [rising, full curve]"
17,Cc1c(OCC(F)(F)F)ccnc1CS(=O)c1nc2ccccc2[nH]1 (stereo not given),"inconclusive: 16.6 µM [cytotoxic, partial curve, poor fit]"
18,CCCn1c(=O)c2[nH]c(C34CC5CC3C[C@@H](C5)C4)nc2n(CCC)c1=O,"inconclusive: 11.8 µM [cytotoxic, partial curve, poor fit]"
19,C[C@H](NC(=O)[C@@H](O)c1cc(F)cc(F)c1)C(=O)N[C@@H]1C(=O)N(C)c2ccccc2-c2ccccc21,"inconclusive: 8.33 µM [cytotoxic, partial curve, poor fit]"
20,Cc1ccc(NC(=O)c2ccc(CN3CCN(C)CC3)cc2)cc1Nc1nccc(-c2cccnc2)n1,"inconclusive: 33.2 µM [cytotoxic, single point]"
21,Cc1[nH]c(=O)c(C#N)cc1-c1ccncc1,"inconclusive: 23.5 µM [cytotoxic, partial curve, poor fit]"
22,Clc1ccc2nsnc2c1NC1=NCCN1,"inconclusive: 37.2 µM [cytotoxic, single point]"
23,COc1ccnc(CS(=O)c2nc3ccc(OC(F)F)cc3[nH]2)c1OC (stereo not given),"inconclusive: 37.2 µM [cytotoxic, single point]"
24,CCNC(=O)c1noc(-c2cc(C(C)C)c(O)cc2O)c1-c1ccc(CN2CCOCC2)cc1,active: 0.0332 µM
25,CC(C)(O)[C@H]1CC[C@@](C)([C@H]2[C@@H](O)C[C@@]3(C)[C@@H]4C[C@H](O[C@@H]5O[C@H](CO)[C@@H](O)[C@H](O)[C@@H]5O)[C@H]5C(C)(C)[C@@H](O[C@@H]6OC[C@@H](O)[C@H](O)[C@@H]6O)CC[C@@]56C[C@@]46CC[C@]23C)O1,"inconclusive: 33.2 µM [cytotoxic, single point]"

# Random excerpt: 2 compounds from above.
row,SMILES,Potency
16,Cc1[nH]c(=O)c(C#N)cc1-c1ccc2nccn2c1,"inconclusive: 0.003 µM [rising, full curve]"
9,CC[C@@H](C)[C@H](NC(=O)[C@H](CC1CCCCC1)NC(=O)c1ccno1)C(=O)N1CCC2(CCc3ccccc32)CC1,"inconclusive: 3.72 µM [cytotoxic, full curve, poor fit]"
